From PubChem BioAssay AID1671190 (National Center for Advancing Translational Sciences (NCATS), 2021)
Among all 580,000 compounds or so, about 6,100 (1.1%) were called active. The inconclusive results got no clear call from the source; some entries with a clear call stand among them for comparison. The call rests on the fitted dose curve; in most records, active means well fitted inhibition curve with a large enough effect; inconclusive means small, poorly fitted or top-dose-only effect, or another doubt; inactive means no such curve, though single readings can be large or run the other way. Potencies of inconclusive entries are doubtful fits and often do not repeat.

The chains behind the UniProt entries cited, without tags or fusion partners.
UniProt P18054, whole entry, looked up: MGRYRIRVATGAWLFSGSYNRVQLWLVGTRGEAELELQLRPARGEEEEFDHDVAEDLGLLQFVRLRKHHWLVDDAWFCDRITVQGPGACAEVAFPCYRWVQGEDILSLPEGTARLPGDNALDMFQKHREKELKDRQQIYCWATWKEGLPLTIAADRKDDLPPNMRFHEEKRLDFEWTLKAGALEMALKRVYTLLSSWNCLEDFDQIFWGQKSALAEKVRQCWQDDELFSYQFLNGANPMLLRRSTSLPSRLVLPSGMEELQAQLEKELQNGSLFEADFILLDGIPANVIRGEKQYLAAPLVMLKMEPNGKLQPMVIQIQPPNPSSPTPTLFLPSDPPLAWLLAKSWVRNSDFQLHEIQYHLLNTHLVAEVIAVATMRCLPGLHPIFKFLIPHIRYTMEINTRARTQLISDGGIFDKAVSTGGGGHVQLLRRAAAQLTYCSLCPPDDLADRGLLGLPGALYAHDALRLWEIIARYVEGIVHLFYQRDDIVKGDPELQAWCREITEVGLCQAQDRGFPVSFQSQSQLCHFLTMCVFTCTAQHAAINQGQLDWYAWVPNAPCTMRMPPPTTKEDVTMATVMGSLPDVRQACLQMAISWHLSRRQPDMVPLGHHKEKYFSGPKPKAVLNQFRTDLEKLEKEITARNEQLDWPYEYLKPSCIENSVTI

What follows are compounds tested against Polyunsaturated fatty acid lipoxygenase ALOX12 (Homo sapiens) (UniProt P18054) (assay: Primary qHTS assay for inhibitors of human arachidonate 12S-lipoxygenase (ALOX12): Round 2). Conditions: purified 12hLO, xylenol orange hydroperoxide absorbance; activity change, negative = inhibition: at 108 µM (top of the series) unless noted.
How it was run: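 Purified human 12hLO (150 nM final) in 25 mM Hepes, 0.01% Triton X-100, pH 7.0 was preincubated 15 min at room temperature with compound. Then 40 uM arachidonic acid was added, 30 min. Hydroperoxide was read by Fe-XO absorbance ratio 573/405 nm.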
On the % scale 0 is the no-effect control and ±100 the full control effect; potency means the concentration at half of the fitted maximal effect.

Row | Compound | Potency | activity change, negative = inhibition
1 | COC(=O)c1ccc(N(C(=O)CNC(=O)c2ccco2)C(C(=O)NC2CCCC2)c2ccco2)cc1 (stereo not given) | inactive | –
2 | COc1ccccc1C(=O)Oc1c(Cl)cc(C#N)cc1OC | inconclusive: 44.7 µM [inhibitor, partial curve, poor fit] | –
3 | CCCCn1c(CCC(=O)N(C)Cc2cc(C)ccc2OC)nc2c1c(=O)[nH]c(=O)n2CCCC | inconclusive: 100 µM [inhibitor, single point] | –
4 | COc1ccc2c(c1)oc(=O)c1cc(OC)ccc12 | inconclusive: 3.16 µM [inhibitor, full curve, poor fit] | –
5 | CCN(CC)S(=O)(=O)c1ccc2c(c1)nc(SCC(=O)Nc1ccc3c(c1)OCO3)n2CC | inactive | –
6 | COc1ccccc1C(=O)NCCCCNC(=O)c1ccccc1OC | inactive | –
7 | Cc1ccc(S(=O)(=O)N2C[C@H]3C(=O)C[C@@H](c4cccc(C)c4)N(S(=O)(=O)c4ccc(C)cc4)[C@H]3C[C@H]2c2ccccc2)cc1 | inconclusive: 35.5 µM [inhibitor, single point] | –
8 | O=C(O)CCC(=O)c1ccc(Cl)s1 | inconclusive: 112 µM [inhibitor, single point] | –
9 | O=C(c1cc2cc(F)ccc2[nH]1)N(Cc1ccco1)Cc1ccco1 | inconclusive: 15.8 µM [inhibitor, full curve, poor fit] | –
10 | Cc1cc(Nc2cccc(Cl)c2)nc2ccc(NC(=O)Cc3cccc(C(F)(F)F)c3)cc12 | inconclusive: 112 µM [inhibitor, partial curve, poor fit] | –
11 | CCOC(=O)c1ccccc1NC(=O)CSc1c(C(C)C)cnc2c1c(=O)n(C)c(=O)n2C | inactive | –
12 | C=CCNC(=O)C1CCN(c2ccc(S(=O)(=O)N3CCOCC3)cc2[N+](=O)[O-])CC1 | inconclusive: 4.47 µM [inhibitor, partial curve, poor fit] | –
13 | CCCn1c(SCC(=O)c2ccc(CC)cc2)n[nH]c1=O | inactive | –
14 | Cc1ccc(-c2n[nH]c(=O)c3ccccc23)cc1S(=O)(=O)Nc1ccccc1 | inconclusive: 126 µM [inhibitor, single point] | –
15 | O=C(O)C/C(=C/c1cccnc1)c1nc2ccccc2s1 | inconclusive: 7.94 µM [inhibitor, full curve, poor fit] | –
16 | COc1cccc(OC)c1OCc1cc(-c2ccco2)on1 | inconclusive: 39.8 µM [inhibitor, partial curve, poor fit] | –
17 | COc1ccc(CNC(=O)c2ccc(NC(=O)N3CCCCc4ccccc43)cc2)cc1 | inactive | –
18 | CN(C(=O)c1ccc(NC(=O)Cc2ccc(NC(=O)C3CCCN(C(=O)c4ccccc4)C3)cc2)cc1)C1CC1 (stereo not given) | inconclusive: 126 µM [inhibitor, partial curve, poor fit] | –
19 | COc1ccc(C(=O)NC(=S)Nc2ccc3c4c(cccc24)CC3)cc1OC | inconclusive: 25.1 µM [inhibitor, partial curve, poor fit] | –
20 | C=CCN(C)C(=O)[C@@H](C)C1CC[C@@]2(C)Cc3sc(Nc4c(Cl)cccc4Cl)nc3[C@@H](C)[C@@H]2[C@H]1O (stereo not given in full) | inconclusive: 44.7 µM [inhibitor, partial curve] | –
21 | O=C(NCCc1ccccn1)c1cccc(Cl)c1 | inactive | –
22 | O=C(Cn1ccc2c(Cl)cccc21)Nc1ccc(O)cc1 | inconclusive: 50.1 µM [inhibitor, partial curve, poor fit] | –

Numbers 3 through 19, quoted:
Row | Compound | Potency | activity change, negative = inhibition
3 | CCCCn1c(CCC(=O)N(C)Cc2cc(C)ccc2OC)nc2c1c(=O)[nH]c(=O)n2CCCC | inconclusive: 100 µM [inhibitor, single point] | –
4 | COc1ccc2c(c1)oc(=O)c1cc(OC)ccc12 | inconclusive: 3.16 µM [inhibitor, full curve, poor fit] | –
5 | CCN(CC)S(=O)(=O)c1ccc2c(c1)nc(SCC(=O)Nc1ccc3c(c1)OCO3)n2CC | inactive | –
6 | COc1ccccc1C(=O)NCCCCNC(=O)c1ccccc1OC | inactive | –
7 | Cc1ccc(S(=O)(=O)N2C[C@H]3C(=O)C[C@@H](c4cccc(C)c4)N(S(=O)(=O)c4ccc(C)cc4)[C@H]3C[C@H]2c2ccccc2)cc1 | inconclusive: 35.5 µM [inhibitor, single point] | –
8 | O=C(O)CCC(=O)c1ccc(Cl)s1 | inconclusive: 112 µM [inhibitor, single point] | –
9 | O=C(c1cc2cc(F)ccc2[nH]1)N(Cc1ccco1)Cc1ccco1 | inconclusive: 15.8 µM [inhibitor, full curve, poor fit] | –
10 | Cc1cc(Nc2cccc(Cl)c2)nc2ccc(NC(=O)Cc3cccc(C(F)(F)F)c3)cc12 | inconclusive: 112 µM [inhibitor, partial curve, poor fit] | –
11 | CCOC(=O)c1ccccc1NC(=O)CSc1c(C(C)C)cnc2c1c(=O)n(C)c(=O)n2C | inactive | –
12 | C=CCNC(=O)C1CCN(c2ccc(S(=O)(=O)N3CCOCC3)cc2[N+](=O)[O-])CC1 | inconclusive: 4.47 µM [inhibitor, partial curve, poor fit] | –
13 | CCCn1c(SCC(=O)c2ccc(CC)cc2)n[nH]c1=O | inactive | –
14 | Cc1ccc(-c2n[nH]c(=O)c3ccccc23)cc1S(=O)(=O)Nc1ccccc1 | inconclusive: 126 µM [inhibitor, single point] | –
15 | O=C(O)C/C(=C/c1cccnc1)c1nc2ccccc2s1 | inconclusive: 7.94 µM [inhibitor, full curve, poor fit] | –
16 | COc1cccc(OC)c1OCc1cc(-c2ccco2)on1 | inconclusive: 39.8 µM [inhibitor, partial curve, poor fit] | –
17 | COc1ccc(CNC(=O)c2ccc(NC(=O)N3CCCCc4ccccc43)cc2)cc1 | inactive | –
18 | CN(C(=O)c1ccc(NC(=O)Cc2ccc(NC(=O)C3CCCN(C(=O)c4ccccc4)C3)cc2)cc1)C1CC1 (stereo not given) | inconclusive: 126 µM [inhibitor, partial curve, poor fit] | –
19 | COc1ccc(C(=O)NC(=S)Nc2ccc3c4c(cccc24)CC3)cc1OC | inconclusive: 25.1 µM [inhibitor, partial curve, poor fit] | –

(next part)

Row | Compound | Potency | activity change, negative = inhibition
23 | CCOc1ccccc1NC(=O)COc1coc(CN2CCc3ccccc3C2)cc1=O | inactive | –
24 | CCc1cccc(CC)c1NC(=O)c1ccc(CSc2ccccc2)cc1 | inactive | –
25 | CNc1ncncc1-c1ccccc1C(F)(F)F | inconclusive: 44.7 µM [inhibitor, partial curve, poor fit] | –
26 | COCC(=O)N1CCC2CC1c1cc(Cl)ccc12 (stereo not given) | inconclusive: 31.6 µM [inhibitor, single point] | –
27 | COc1cc(NC(=O)c2cc3n(n2)CC(c2ccc(Cl)cc2)OC3)c(OC)cc1Cl (stereo not given) | inconclusive: 50.1 µM [inhibitor, partial curve] | –
28 | NC(=O)c1ccc(C(F)(F)F)n(Cc2ccc(F)c(F)c2)c1=O | inconclusive: 31.6 µM [inhibitor, single point] | –
29 | Cc1noc(-c2ccc(C(C)(C)C)cc2)c1C(=O)NCc1cccc(Cl)c1 | inconclusive: 14.1 µM [inhibitor, full curve, poor fit] | –
30 | CC(C)NC(=O)/C(C#N)=C/c1ccc(N(C)C)o1 | inconclusive: 5.01 µM [inhibitor, full curve, poor fit] | –
31 | COc1nccc(N2CCC(CC(=O)NCCCN3CCC(C)CC3)CC2)n1 | inactive | –
32 | CCN(CC)S(=O)(=O)c1ccc(-c2nnc(SCC(=O)Nc3ccc(OC)cc3)o2)cc1 | inconclusive: 112 µM [inhibitor, single point] | –
33 | COc1cc(-c2coc3c(C(=O)NCc4cccc(Cl)c4)cccc23)ccc1O | inconclusive: 89.1 µM [inhibitor, partial curve, poor fit] | –
34 | CCOP(=O)(OCC)c1nc(Cc2ccc(OC)cc2)oc1NCc1cccnc1 | inconclusive: 39.8 µM [inhibitor, partial curve, poor fit] | –
35 | Cc1ccc(C)c(-c2[nH]c3c(c2-c2c(-n4cccc4)n(C)c(=O)[nH]c2=O)c(=O)[nH]c(=O)n3C)c1 | – | inconclusive: -33.2% [inhibitor]
36 | N#CC1(NC(=O)COC(=O)C2=COCCO2)CCCCC1 | inactive | –
37 | CC(C)CN1CN(Cc2ccccc2)CNC1=S | inconclusive: 35.5 µM [inhibitor, partial curve, poor fit] | –
38 | CCN(C(=O)C(C)N1C(=O)/C(=C/c2cccs2)SC1=S)C1CCS(=O)(=O)C1 (stereo not given) | inconclusive: 70.8 µM [inhibitor, partial curve, poor fit] | –
39 | COc1cc2cc(CN(Cc3cccs3)C(=S)Nc3ccc(C)cc3)c(=O)[nH]c2cc1OC | inconclusive: 28.2 µM [inhibitor, full curve, poor fit] | –
40 | COc1ccc(-c2nc3cc(NC(=O)c4cc(Cl)ccc4OC)ccc3o2)cc1 | inconclusive: 50.1 µM [inhibitor, partial curve] | –
41 | O=C(CN1CCN(c2ccc(F)cc2)CC1)Nc1nccs1 | inactive | –
42 | COc1ccccc1-n1c(C)cc(/C=C2\C(=N)N3N=C(CC(=O)N4CCOCC4)SC3=NC2=O)c1C | inactive | –
43 | COc1ccc(N2C(=O)CSC2c2ccc3c(c2)OCO3)cc1 (stereo not given) | inactive | –
44 | Cc1ccc(Cl)cc1NC(=O)N(C)Cc1nc(-c2ccccc2C)oc1C | inconclusive: 100 µM [inhibitor, single point] | –

Row | Compound | Potency | activity change, negative = inhibition
45 | O=C(Nc1ccc(Cl)cc1)N1CCC(c2nn(-c3ccc(F)cc3)c(=O)[nH]2)CC1 | inconclusive: 31.6 µM [inhibitor, full curve] | –
46 | CNc1ccc(Br)cc(C(=O)/C=C/c2ccc(Cl)cc2Cl)c1=O | active: 12.6 µM | –
47 | CCC(=O)N(CCC(c1ccco1)C(C)C)Cc1ccccc1 (stereo not given) | inactive | –
48 | Cc1cccc(NC(=O)c2ccc(S(=O)(=O)NCc3cccnc3)cc2)c1 | inactive | –
49 | COc1ccc(CC(=O)NC(CC(=O)O)c2ccc(OC)cc2)cc1 (stereo not given) | inconclusive: 20 µM [inhibitor, partial curve, poor fit] | –
50 | CC(O)C(NS(=O)(=O)c1ccc(Cl)cc1)C(=O)OCC(=O)c1c[nH]c2ccccc12 (stereo not given) | inconclusive: 50.1 µM [inhibitor, partial curve, poor fit] | –
51 | CCN1/C(=C2/SC(=S)N(NC(C)=O)C2=O)Sc2ccccc21 | inactive | –
52 | COc1cc(-c2ccc(Nc3ccccc3C(=O)O)c(OC)c2)ccc1Nc1ccccc1C(=O)O | active: 35.5 µM | –
53 | Cc1ccc2c(c1)sc(C)[n+]2CCCS(=O)(=O)[O-] | inconclusive: 2.24 µM [inhibitor, full curve, poor fit] | –
54 | COc1ccc(OC)c(C(=O)c2coc3ccc(O)c(CN(C)C)c23)c1 | inconclusive: 112 µM [inhibitor, single point] | –
55 | COc1cc2c(cc1C(C)=O)C1CCC3(C)C(OC(C)=O)CCC3C1CC2 (stereo not given) | inactive | –
56 | Cc1cc(NC(=O)Cc2ccsc2)ccc1N1CCCC1=O | inconclusive: 3.98 µM [inhibitor, full curve, poor fit] | –
57 | Cc1ccsc1/C=N/n1c(-c2ccco2)n[nH]c1=S | inconclusive: 2.51 µM [inhibitor, full curve, poor fit] | –
58 | CC(=O)/C=C\c1ccccc1OC(=O)c1cc2ccccc2oc1=O | inactive | –
59 | COC(=O)[C@@]1(Cc2ccc(F)cc2)[C@H]2c3cc(C(=O)N(C)C)n(C)c3C[C@H]2CN1C(=O)c1ccccc1 | inactive | –
60 | CCOc1cccc(C2C(C(=O)c3ccc(C)o3)=C(O)C(=O)N2c2nnc(C)s2)c1 (stereo not given) | inconclusive: 0.708 µM [inhibitor, full curve, poor fit] | –
61 | O=C1CCSC2(C(=O)N(Cc3ccc(F)cc3)c3ccccc32)N1c1ccc(F)c(F)c1 (stereo not given) | – | inconclusive: -32.7% [inhibitor]
62 | CCc1ccc(-c2nc(CS(=O)CC(=O)NCCc3ccc(Cl)cc3)c(C)o2)cc1 (stereo not given) | inconclusive: 56.2 µM [inhibitor, partial curve, poor fit] | –
63 | Cc1ccccc1C1C(C#N)=C(N)Oc2c1oc(CO)cc2=O (stereo not given) | inactive | –
64 | COCC(C)Nc1ncnc2c1c(-c1ccccc1)cn2-c1cccc(C(F)(F)F)c1 (stereo not given) | inconclusive: 112 µM [inhibitor, partial curve, poor fit] | –
65 | Fc1cc(Br)ccc1OCc1coc(-c2ccccc2)n1 | inconclusive: 100 µM [inhibitor, partial curve, poor fit] | –
